Test results: publication PMC5651247
No constants are given. Whether binding was seen depends on the method and setting. For part of these data: In cells and extracts the contact can be indirect. Some binding calls cover weakened binding; strength is not graded here.

By UniProt entry, the sequences of proteins in these tests, tags left out. Residues count along the entry.
UniProt Q03591, residues 19-330: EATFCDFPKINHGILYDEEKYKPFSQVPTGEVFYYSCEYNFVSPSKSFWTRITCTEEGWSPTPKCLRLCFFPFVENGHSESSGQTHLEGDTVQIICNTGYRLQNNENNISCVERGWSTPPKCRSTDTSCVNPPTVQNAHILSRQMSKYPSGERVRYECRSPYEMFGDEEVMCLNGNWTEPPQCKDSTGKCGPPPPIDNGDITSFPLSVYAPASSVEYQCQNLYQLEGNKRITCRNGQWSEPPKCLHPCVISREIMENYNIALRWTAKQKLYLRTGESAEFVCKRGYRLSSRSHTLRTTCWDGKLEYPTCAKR
UniProt P36980, residues 19-270: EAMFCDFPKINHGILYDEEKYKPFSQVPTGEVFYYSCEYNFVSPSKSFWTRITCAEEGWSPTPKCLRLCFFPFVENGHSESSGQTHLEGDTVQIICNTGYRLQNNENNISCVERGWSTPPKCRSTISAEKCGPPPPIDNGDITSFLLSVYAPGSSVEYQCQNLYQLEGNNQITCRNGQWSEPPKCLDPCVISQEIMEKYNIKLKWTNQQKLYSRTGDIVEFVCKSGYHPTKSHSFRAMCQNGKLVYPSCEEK

Legend:
[1] = biological target: Factor H-related-1 (FHR-1), serum-derived (human (endogenous in serum)) (UniProt Q03591); assay: ELISA; sandwich ELISAs for dimers in serum: FHR-1/1 (anti-FH.02 to capture and to detect), FHR-1/2 (anti-FH.02 to capture, anti-FHR-2 to detect), FHR-2/2 (anti-FHR-2-FLAG on anti-FLAG to capture, biotinylated anti-FHR-2 to detect); serum diluted in HPE, RT
[2] = biological target: Factor H-related-2 (FHR-2), serum-derived (human (endogenous in serum)) (UniProt P36980); assay: co-IP; from 200 µL human serum of healthy donors with zero or two copies of CFHR1, without prior purification; anti-FH.02 (FHR-1), anti-FHR-2 or anti-FHR-5.1 on RM-19 Sepharose, PBS with 0.1% Tween-20, 0.1% BSA, 10 mM EDTA, o/n at 4°C; Western blot with anti-FHR-2.1 and anti-FHR-5.4
[3] = biological target: Factor H-related-1 (FHR-1), serum-derived (human (endogenous in serum)) (UniProt Q03591); assay: ELISA; FHR-1/2 ELISA of equal amounts of CFHR1-deficient and CFHR2^mut/mut (FHR-2-deficient) serum, mixed and incubated at 37°C for >2 h
[4] = biological target: Recombinant human FHR-1 (rFHR-1), CFHR1*A allotype, C-terminal 6×His (human) (UniProt Q03591); assay: ELISA; FHR-1/2 ELISA (anti-FH.02 to capture, anti-FHR-2 to detect) of pooled CFHR3/CFHR1-deficient serum incubated with 5 µg/mL rFHR-1 at 37°C for >2 h; only the target purified
[5] = biological target: Factor H-related-2 (FHR-2), serum-derived (human (endogenous in serum)) (UniProt P36980); assay: ELISA; sandwich ELISAs for dimers in serum: FHR-1/1 (anti-FH.02 to capture and to detect), FHR-1/2 (anti-FH.02 to capture, anti-FHR-2 to detect), FHR-2/2 (anti-FHR-2-FLAG on anti-FLAG to capture, biotinylated anti-FHR-2 to detect); serum diluted in HPE, RT
[6] = biological target: Factor H-related-1 (FHR-1), serum-derived (human (endogenous in serum)) (UniProt Q03591); assay: heparin affinity chromatography with ELISA of the fractions; 150 µL untreated serum (NHS or pooled CFHR3/CFHR1-deficient) in 10 mM NaPO4 pH 7.4 on a 1 mL HP Heparin column, linear gradient 0 to 2 M NaCl; dimers in the fractions measured by the dimer ELISAs
[7] = biological target: Factor H-related-1 (FHR-1), serum-derived (human (endogenous in serum)) (UniProt Q03591); assay: co-IP; from 200 µL human serum of healthy donors with zero or two copies of CFHR1, without prior purification; anti-FH.02 (FHR-1), anti-FHR-2 or anti-FHR-5.1 on RM-19 Sepharose, PBS with 0.1% Tween-20, 0.1% BSA, 10 mM EDTA, o/n at 4°C; Western blot with anti-FHR-2.1 and anti-FHR-5.4
[8] = biological target: Recombinant human FHR-1 (rFHR-1), CFHR1*A allotype, C-terminal 6×His (human) (UniProt Q03591); assay: ELISA; the same homodimer sandwich ELISAs (one mAb to capture and to detect) on purified rFHR-1 or rFHR-2 diluted in HPE, RT; both purified

Measured: binding

Factor H-related-1 (FHR-1), serum-derived (from UniProt Q03591 19-330)
binds: [1] | [2]

Factor H-related-2 (FHR-2), serum-derived (from UniProt P36980 19-270)
not listed: [2] | [8]
binds: all other assays above

Recombinant human FHR-1 (rFHR-1), CFHR1*A allotype, C-terminal 6×His (from UniProt Q03591 19-330)
binds: [8]
